Test results reported in the supplement of paper PMC3334620.
In all, about 33,000 sequences were measured (“E-score (-0.5 to 0.5)”: median about -0.0059, highest 2% from about 0.26 on). Some of the results follow.

biological target: T1, Cin5 (UniProt P40917); assay: PBM E-score (8-mer binding enrichment) (E-score (-0.5 to 0.5)); higher = stronger / more preferred TF binding; conditions: protein concentration: 100 nM; construct: GST-full length
T1 sequence: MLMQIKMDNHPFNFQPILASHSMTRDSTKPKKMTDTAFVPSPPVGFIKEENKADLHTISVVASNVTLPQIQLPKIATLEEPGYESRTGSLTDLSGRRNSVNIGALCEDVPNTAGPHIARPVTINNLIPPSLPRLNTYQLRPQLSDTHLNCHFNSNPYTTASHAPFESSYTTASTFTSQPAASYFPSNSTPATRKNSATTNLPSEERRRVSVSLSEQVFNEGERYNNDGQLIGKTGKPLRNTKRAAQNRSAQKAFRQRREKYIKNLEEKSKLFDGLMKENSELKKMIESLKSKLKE
Method in brief: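 Universal all-10-mer Agilent arrays, fresh or stripped once, were converted to double-stranded form by primer extension. GST-tagged yeast transcription factors from PURExpress in vitro transcription/translation, full-length or DNA-binding domain only, were applied at about 100-200 nM and detected with fluorescent anti-GST. After masliner normalisation, the Universal PBM Analysis Suite scored each ungapped eight-base word together with its reverse complement by E-score.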

Sequence	PBM E-score
ATGATCAA	0.143
ATTTAATG	0.229
ATGTAGCC	-0.12
ACATTGGA	-0.0838
ACGAAGCT	0.00769
AGAGCCGC	-0.0103
CCGCAACA	0.0621
CGCATCAG	0.0136
CCGTTCTA	0.089
CGCGCCAA	0.0569
TGAAGGAA	0.12
ATATCACC	0.217
ACGGGTCG	0.0221
CTAGTGGA	-0.125
AATGCTAC	0.171
CGCATTCA	0.174
GTCTCTTA	0.133
AAGCAACG	0.138
AACCTAGA	-0.0229
GAACCGCA	0.122
ATGACTGA	0.0358
ATATACGA	0.0395
ATTCGTCC	0.254
CGCAGCGC	-0.138
AAAGTGAG	0.134

Sequence	PBM E-score
ATAGCGAC	-0.1
ACATGTCT	0.0297
AGAGGGCA	-0.272
GCGCCCAC	-0.0946
ACGAAACT	0.0491
GTCCGTAA	-0.0824
ATCTAGTA	0.127
CCGGAGAA	-0.0357
CGTGTGAC	-0.154
GCCATCCA	-0.0952
ATCAGGGA	-0.109
AAGTTGGC	-0.0247
ATGCTATG	0.14
GCTGTTCC	-0.0338
GAGCTTAA	-0.104
AGGAGTAA	0.0726
CTTCCACC	-0.214
CCGGTACG	-0.253
GCACTCGA	0.0449
CCTTGGCG	-0.283
CGAATAGA	-0.00721
ACCAGTTC	-0.0385
CATAAGCG	0.267
ACTTATTA	0.173
ACTCATTC	0.202

Sequence	PBM E-score
GTATATTA	0.219
AGGTCTAC	-0.144
CGCTATCC	-0.0163
TCTCCAAA	-0.0839
AAAGGCTT	-0.132
GATTCTTA	0.213
AATGTTGA	-0.014
TGATAGAA	0.0353
AAGTGCTG	-0.0829
ACTCTAAG	-0.0993
CGATTGCA	0.15
ACTAGTCG	-0.0452
CCCCTTAG	-0.275
CTGTCCTA	-0.141
AACAACCC	0.0808
GATTCGTA	0.15
CATCGAAG	0.0755
AATTCTGG	0.0591
ATTCGTGC	0.17
ACAAATAC	0.252
CGTCTCCA	0.0161
ATCGGGAC	-0.247
AAGGGATC	-0.0209
ATCCCGTA	0.165
CGGAGATA	0.168

Sequence	PBM E-score
AGTCCAGA	-0.144
AGGAGCTA	-0.227
CAGCACCG	-0.136
CTGAAGAC	-0.233
CCGAGTAA	0.0357
GGTCACAC	-0.305
ACGACTTA	-0.0557
GACTGCAC	-0.0947
TACTACGA	0.139
TAACCCGA	-0.0693
CCAGACAA	-0.141
TAGGGTGA	0.107
TCCTCTAA	-0.0789
CTACCCTA	-0.101
GGCTCGTA	0.117
GGCATGCA	-0.096
GTTTACAA	-0.00663
CTCATTAC	0.19
TCCGCCAA	-0.0134
ACTTGCTG	0.0391
ACGGCCTC	-0.117
ATTATACG	0.257
ATGGACCC	-0.0981
AACCCTAC	-0.0781
AGGCCAAG	-0.214

Sequence	PBM E-score
CATGTGTA	0.0361
AGGAGCAC	-0.0874
CGAATGCA	0.0628
AACAGGGA	-0.00767
CAGAGTGC	-0.106
AGCCTCTA	-0.292
CCCACCCC	0.24
ACATCTTG	0.0223
AGATATTC	0.0754
AATAAACG	0.098
GATAATAC	0.235
ACGCAGGA	-0.0654
ATACATAT	0.318
AATGTAAG	0.319
AAGAGGGG	-0.161
CCGCGTCG	0.00926
GCTTTAAA	-0.08
ACGCCCTG	-0.112
CATGCGCA	0.0113
GCGCGGCC	-0.0214
AATGGGCT	-0.0711
TGGGGTAA	0.0776
AACCGGAA	0.202
CCGACGCA	-0.242
ACCCAATA	0.0873

Sequence	PBM E-score
AGCGCTGC	-0.115
ATAACATG	0.0972
CAACACAA	0.139
GAACATGC	-0.0608
ATCAGCAC	0.0734
AATTCAAT	0.0563
CAATCGCC	-0.0396
AGCGATCG	0.22
AGTCGAAC	0.082
ACGAAATC	0.214
GGGCGTCA	-0.00967
GCCGCCAA	-0.123
GATTTCAC	0.197
CGCAAATA	0.0628
CCCTCACC	-0.101
AGAATGCA	0.179
CGGCATGC	0.127
GTTAGCTA	0.0147
GTTAAGCA	0.114
CCGGAATA	0.0845
ATCAAATG	0.0633
GCAGACAC	0.0505
CGTCGTGC	0.0808
AGGTATAA	0.114
GTGGTTAA	0.176

Sequence	PBM E-score
GCGGGGAC	-0.0316
AATGTAAA	0.19
ACTAGGGG	-0.144
TGCCTACA	-0.0179
GAGCACGA	0.0847
CGCGCTAG	-0.0212
ACTAATCG	0.355
GATGATCA	0.0191
GCCATACA	0.114
AAGTGTCG	0.0696
CGTCGGTC	-0.00791
ATCCACAC	0.0312
TACTTCCA	0.169
CCCCTTGA	0.0353
TAGGTTCA	0.0773
AGCTAGAT	0.0636
GGCCGTAA	0.0269
ATAGGAGA	-0.151
GGGCTGTA	-0.171
TACCGGTA	0.0137
AATGCGGA	0.0808
AGACGATA	-0.0186

Shown as comma-separated lines: entries from further up.
Sequence,PBM E-score
AGGAGTAA,0.0726
CTTCCACC,-0.214

Looked up above:
TACTTCCA – PBM E-score: 0.169
GCCATACA – PBM E-score: 0.114
